According to PubChem BioAssay AID540275 (National Center for Advancing Translational Sciences (NCATS), 2011):
Among all 320,000 compounds or so, about 620 (0.19%) were called active. The shares of active, inactive and inconclusive entries below differ from those in the screen. Cut-off read from the data, not from the text of the source: active = activation above about 80%; inconclusive = between about 30% and that limit; inactive = weaker than that.

Amino acid sequences for entries named in this document (tags omitted).
UniProt Q8NER1, whole entry, looked up: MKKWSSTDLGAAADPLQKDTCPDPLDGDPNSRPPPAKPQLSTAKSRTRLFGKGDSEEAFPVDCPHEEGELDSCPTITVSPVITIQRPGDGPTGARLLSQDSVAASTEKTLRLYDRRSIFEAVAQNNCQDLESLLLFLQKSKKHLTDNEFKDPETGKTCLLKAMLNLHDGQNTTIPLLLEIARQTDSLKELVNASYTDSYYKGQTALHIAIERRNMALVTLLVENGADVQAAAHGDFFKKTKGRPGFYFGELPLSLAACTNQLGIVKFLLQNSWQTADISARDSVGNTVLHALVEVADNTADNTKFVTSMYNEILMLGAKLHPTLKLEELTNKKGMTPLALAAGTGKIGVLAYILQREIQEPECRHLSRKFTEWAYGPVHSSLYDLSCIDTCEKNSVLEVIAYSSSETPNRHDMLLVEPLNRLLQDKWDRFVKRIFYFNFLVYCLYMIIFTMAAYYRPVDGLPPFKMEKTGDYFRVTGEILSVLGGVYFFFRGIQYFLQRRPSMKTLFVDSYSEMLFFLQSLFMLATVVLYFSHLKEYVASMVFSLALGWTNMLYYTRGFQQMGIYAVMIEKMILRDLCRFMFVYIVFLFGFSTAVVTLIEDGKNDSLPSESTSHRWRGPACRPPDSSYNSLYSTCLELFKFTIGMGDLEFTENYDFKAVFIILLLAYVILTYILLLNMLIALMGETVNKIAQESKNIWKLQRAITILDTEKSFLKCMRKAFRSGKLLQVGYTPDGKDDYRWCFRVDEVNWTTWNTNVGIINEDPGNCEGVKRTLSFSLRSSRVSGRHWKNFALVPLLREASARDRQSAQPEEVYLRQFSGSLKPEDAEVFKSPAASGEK

Target: Transient receptor potential cation channel subfamily V member 1 (Homo sapiens) (UniProt Q8NER1)
Experiment: HTS Assay for Compounds that Act as Agonists of the Vanilloid Receptor 1; note: 0% is about no effect
Settings: TRPV1-expressing cells, Fluo-8 calcium influx, agonist mode; at 8.33 µM, hits give high values
In short: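 Fluo-8 calcium influx in TRPV1-expressing cells, kinetic read (ex 480/em 520 nm). Compound added and read 3 min for agonist activity, followed by capsaicin at EC20 final and 2 min further read for enhancement.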

**Q.** For O=C(/C=C/c1ccc2c(c1)OCO2)Nc1cccnc1, which activation is on record?
**A.** inconclusive: 75.5%

**Q.** For Cc1sc(NC(=O)c2ccco2)c(C(c2ccc(F)cc2)N2CCN(C)CC2)c1C (stereo not drawn), which activation is on record?
**A.** inconclusive: 43.9%

**Q.** Which activation does the source give for O=C(CCNc1ccc(Cl)c(C(F)(F)F)c1)c1ccco1 here?
**A.** inconclusive: 32.6%

**Q.** With Cc1ccc(C)c(C2=CSC3=NS(=O)(=O)CCN23)c1 as the molecule, how does the activation read?
**A.** inactive: 4.2%

**Q.** Which activation does the source give for COc1ccc(-c2ccc(=O)n(Cc3c(F)cccc3Cl)n2)cc1 here?
**A.** inconclusive: 43.8%

**Q.** O=C(/C=C/c1ccco1)N1CCC(Cc2ccccc2)CC1 was tested. Which activation did it give?
**A.** inconclusive: 35.1%

**Q.** For CC(=O)c1ccc(-c2nnc(CCC(=O)N(C)Cc3c(C)nc4ccccn34)o2)s1, which activation is on record?
**A.** inactive: 11.6%

**Q.** COc1ccccc1Nc1nc(-c2cccs2)cs1 was tested. Which activation did it give?
**A.** inactive: -0.41%

**Q.** Which activation does the source give for O=C(Nc1cccc(Cl)c1)c1cc(S(=O)(=O)N2CCOCC2)cs1 here?
**A.** inconclusive: 38.9%

**Q.** Which activation does the source give for CCN(CC)c1ccc2c(C)c(CO)c(=O)oc2c1 here?
**A.** inactive: 1.19%

**Q.** How did the activation turn out when O=C(COC(=O)C12CC3CC(CC(C3)C1)C2)Nc1ccccc1F was run?
**A.** inconclusive: 35.3%

**Q.** For O=C(O)CCC(=O)N1CCN(c2nc3ccccc3s2)CC1, which activation is on record?
**A.** inactive: 1.02%

**Q.** With Cc1ccc(NC(=S)Nc2cccc(S(=O)(=O)Nc3c(C)n(C)n(-c4ccccc4)c3=O)c2)cc1 as the molecule, how does the activation read?
**A.** inactive: -0.606%

**Q.** How did the activation turn out when CN(c1ccccc1)S(=O)(=O)c1ccc(NC(=O)c2ccccc2)cc1 was run?
**A.** inconclusive: 62%

**Q.** Which activation does the source give for Cc1ccc(-n2c(SCC(=O)N3CC(=O)Nc4ccccc43)nc3ccccc3c2=O)cc1 here?
**A.** inactive: 1.76%

**Q.** Which activation does the source give for CC(C)c1ccc(OCC(=O)NC2CCCC2)cc1 here?
**A.** inconclusive: 78.1%

**Q.** With O=C(NC1CCCCCCC1)c1cccc(Cl)c1 as the molecule, how does the activation read?
**A.** inconclusive: 56%

**Q.** For O=C(c1cc2cc(F)ccc2[nH]1)N1CCc2ccccc2C1, which activation is on record?
**A.** inconclusive: 44.1%

**Q.** With COC(=O)c1cccc(S(=O)(=O)N(Cc2ccco2)Cc2cc3ccc(OC)cc3[nH]c2=O)c1 as the molecule, how does the activation read?
**A.** inactive: -0.646%

**Q.** How did the activation turn out when CC(=O)Nc1cccc(-c2cc(-c3c(Cl)cccc3Cl)no2)c1 was run?
**A.** inconclusive: 30.7%

**Q.** With CCOC(=O)C1=C(C)N(CC(C)C)C(=O)/C1=C\c1cccs1 as the molecule, how does the activation read?
**A.** inconclusive: 35.3%

**Q.** Which activation does the source give for CC1(C)NC(=O)N(CCCCOc2ccc3c(c2)CCC3)C1=O here?
**A.** inconclusive: 46.7%

**Q.** How did the activation turn out when O=C(Nc1cccc(-c2nc3ccccc3s2)c1)c1ccc2c(c1)OCO2 was run?
**A.** inconclusive: 54.7%

**Q.** Which activation does the source give for CC(=O)CC(=O)Nc1cccc2c1CCCC2 here?
**A.** inactive: -1.98%

**Q.** How did the activation turn out when C=C(C)c1cccc(C(C)(C)NC(=O)NCc2ccc(OC)c(OC)c2)c1 was run?
**A.** inconclusive: 44.6%

**Q.** With C=CCn1cc(C(=O)OC)c(=O)c2cc(S(=O)(=O)N3CCC(C)CC3)ccc21 as the molecule, how does the activation read?
**A.** inconclusive: 71.8%

**Q.** How did the activation turn out when CCCCOc1cccc(/C=N/NC(=O)c2csc(C)c2C)c1 was run?
**A.** inconclusive: 45.1%

**Q.** COc1ccc(CCc2nnc(CCC(=O)N(C)Cc3ccncc3C)o2)cc1 was tested. Which activation did it give?
**A.** inactive: 2.12%

**Q.** With COc1ccc(Sc2nnc(Cc3ccccc3)c3ccccc23)cc1 as the molecule, how does the activation read?
**A.** inconclusive: 33.1%

**Q.** With COc1ccc(C(=O)Nc2sc(C)c(C)c2CN2CCOCC2)cc1 as the molecule, how does the activation read?
**A.** inconclusive: 33%

**Q.** CN(/N=C\c1ccc(O)c(O)c1)c1nc(-c2ccccc2)cc(-c2ccccc2)n1 was tested. Which activation did it give?
**A.** inactive: 12%

**Q.** How did the activation turn out when CCc1cccc2c(C(=O)COC(=O)/C=C/c3ccc(O)c(OC)c3)c[nH]c12 was run?
**A.** inactive: 1.56%

**Q.** NC(=O)c1ccccc1NC(=O)CC12CC3CC(CC(Br)(C3)C1)C2 was tested. Which activation did it give?
**A.** inconclusive: 44.4%

**Q.** How did the activation turn out when Cc1cnc(NC(=O)c2ccc(F)c(S(=O)(=O)N3CCOCC3)c2)s1 was run?
**A.** inconclusive: 69.1%

**Q.** Which activation does the source give for CN(Cc1cnn(-c2ccc(F)cc2)c1)Cc1nc(Cc2ccccc2)no1 here?
**A.** inconclusive: 60.3%

**Q.** Which activation does the source give for COc1cccc(/C=C2\Sc3ccc(C(=O)NCc4cccnc4)cc3N(C)C2=O)c1 here?
**A.** inconclusive: 41.4%

**Q.** How did the activation turn out when O=C(Nc1ccc(-n2ccc(C(F)(F)F)n2)cc1)c1cccs1 was run?
**A.** inconclusive: 46.9%

**Q.** How did the activation turn out when CCCCc1nc(Cl)c(CO)n1Cc1ccc(-c2ccccc2-c2nn[nH]n2)cc1 was run?
**A.** inactive: 4.46%

**Q.** Which activation does the source give for Cc1cn2c(-c3ccc(Cl)cc3)nnc2s1 here?
**A.** inconclusive: 35.6%

**Q.** For COc1ccc(OCC(=O)Nc2ccc(N3CCCCC3)cc2)cc1, which activation is on record?
**A.** inconclusive: 35.5%

**Q.** For COCCCn1c(=O)c2ccccc2n(Cc2cccc(C)c2)c1=O, which activation is on record?
**A.** inactive: 10.4%

**Q.** For CC(=O)c1cn(C(=O)c2ccc(Cl)cc2)c2ccccc12, which activation is on record?
**A.** inactive: 1.07%

**Q.** Which activation does the source give for Cc1nn(-c2ccccc2)c2sc(C(=O)NC3CCCCC3)cc12 here?
**A.** inconclusive: 44.1%

**Q.** How did the activation turn out when CC(C)N(C(=O)Cn1c(SCC(=O)NCc2ccc3c(c2)OCO3)nc2ccccc21)C(C)C was run?
**A.** inactive: 4.79%

**Q.** With CC1CCC(NC(=O)C2COc3ccccc3O2)CC1 (stereo not drawn) as the molecule, how does the activation read?
**A.** inconclusive: 72.5%

**Q.** For O=C(C1CCC1)N1CCN(c2cccc(C(F)(F)F)c2)CC1, which activation is on record?
**A.** inconclusive: 56.7%

**Q.** For O=C(C[n+]1ccc2ccccc2c1)Nc1cc(C(F)(F)F)ccc1Cl, which activation is on record?
**A.** inactive: 1.76%

**Q.** With CCOc1ccc(-c2cc(CCCC(=O)Nc3cccc(OC)c3)no2)cc1 as the molecule, how does the activation read?
**A.** inconclusive: 38.6%

**Q.** Which activation does the source give for CCCC1=C(C(=O)OCC)C(c2ccc(OC)c(C)c2OC)C(C#N)=C(N)O1 (stereo not drawn) here?
**A.** inconclusive: 60.4%

**Q.** How did the activation turn out when COC(=O)c1ccccc1NC1=C/C(=N\S(=O)(=O)c2ccc(C(=O)O)cc2)c2ccccc2C1=O was run?
**A.** inactive: -2.58%

**Q.** How did the activation turn out when COc1cc2c(cc1OC)CN(CC(=O)Nc1ccc3c(c1)OC(F)(F)O3)CC2 was run?
**A.** inconclusive: 48.9%

**Q.** Cc1ccc(C2=NN(CC(=O)NCc3cccnc3)C(=O)CC2)cc1 was tested. Which activation did it give?
**A.** inconclusive: 49.5%

**Q.** With CC(OC(=O)CC1CC2CCC1C2)C(=O)Nc1ccc(C(N)=O)cc1 (stereo not drawn) as the molecule, how does the activation read?
**A.** inconclusive: 63.6%

**Q.** With Cc1ccc(S(=O)(=O)N2CCCNCC2)cc1 as the molecule, how does the activation read?
**A.** inactive: -0.0912%

**Q.** With Cn1c(C(=O)N/N=C/c2ccccc2)cc2ccccc21 as the molecule, how does the activation read?
**A.** inconclusive: 72.3%

**Q.** For CCc1ccc(C(=O)Nc2ccc3c(c2)n(C)c(=O)n3C)cc1, which activation is on record?
**A.** inconclusive: 40.4%

**Q.** For O=C(N/N=C/c1cc(Br)c(O)c(Br)c1)c1cc2c(ccc3ccccc32)o1, which activation is on record?
**A.** inactive: 2.92%

**Q.** For CCOc1ccc2nc(C(=O)N3CCCC(C)C3)sc2c1 (stereo not drawn), which activation is on record?
**A.** inconclusive: 34.8%
